Values from PubChem BioAssay AID652243 (Drosophila RNAi Screening Center, 2013)

- Screen: 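Fly regulators of androgen-dependent reporter output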 (primary screen)
- System: Drosophila S2R+ cells
- Reagents: long dsRNA against Drosophila genes
- Time to read-out: 72 h (48 h, then 24 h hormone)
- Treatment: synthetic androgen R1881 at 10 nM for 24 h
- Read-out: 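Per-well raw luminescence of the androgen-driven firefly reporter and of the Renilla control, two replicates each, without normalisation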
- Reading the numbers: firefly reporter light: higher = more light from androgen-responsive reporter; Renilla control light: higher = more constitutive control signal (cell number, transfection)
- Active means: 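Across duplicate plates, a knock-down whose log firefly/Renilla ratio shifted a set fold down or up from the GFP/LacZ control mean was a hit; the downward cut appears as both 1.5 and 3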
- Calls: active = hit: reporter lowered or raised; inactive = no hit
The screen tested about 24,000 reagents; below is an unselected part of those with a known target gene and a result. Over the whole deposit, 246 (1%) got an active call. 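Plates not normalised; calls are printed but the firefly/Renilla ratio behind them is not deposited; fold cut for lowering reported inconsistently.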 The raw values are shown without normalisation. A plus sign joins genes that one reagent is predicted to hit. Not given: the amount of reagent.

| Gene | DRSC id | firefly reporter light, replicate 1 | firefly reporter light, replicate 2 | Renilla control light, replicate 1 | Renilla control light, replicate 2 | call |
| --- | --- | --- | --- | --- | --- | --- |
| Nop10 (Nop10 ribonucleoprotein) | DRSC28427 | 2.61e5 | 3.72e5 | 5.95e5 | 9.18e5 | inactive |
| CG12081 | DRSC17802 | 79952 | 56960 | 5.25e5 | 6.59e5 | inactive |
| CG10939 | DRSC06019 | 9.94e5 | 9.09e5 | 2.31e6 | 2.22e6 | inactive |
| CG10939 | DRSC21734 | 4.17e5 | 4.42e5 | 1.97e6 | 1.99e6 | inactive |
| CG1671 | DRSC06617 | 1.62e6 | 5.60e5 | 2.07e6 | 9.39e5 | inactive |
| Rab35 | DRSC20691 | 1.26e5 | 1.26e5 | 5.98e5 | 7.66e5 | inactive |
| Rab35 | DRSC26739 | 8.39e5 | 4.78e5 | 7.35e5 | 2.85e5 | inactive |
| Xrp1 | DRSC15283 | 97244 | 65324 | 1.88e6 | 1.17e6 | inactive |
| Xrp1 | DRSC28718 | 2.56e5 | 2.44e5 | 8.82e5 | 6.71e5 | inactive |
| Mst36Fb (Male-specific transcript 36Fb) | DRSC28786 | 9.28e5 | 1.13e6 | 1.45e6 | 1.18e6 | inactive |
| CG8564 | DRSC10997 | 7.92e5 | 8.45e5 | 1.52e6 | 1.87e6 | inactive |
| lncRNA:CR40469 + lncRNA:CR34335 | DRSC38755 | 6.66e5 | 8.06e5 | 1.27e6 | 1.94e6 | inactive |
| Bili + CR41504 | DRSC38662 | 7.71e5 | 5.68e5 | 1.89e6 | 2.22e6 | inactive |
| CG42296 | DRSC00394 | 1.01e5 | 82626 | 4.78e5 | 6.96e5 | inactive |
| CG33791 + CG12105 + CG18170 | DRSC08387 | 9.16e5 | 1.18e6 | 1.29e6 | 1.49e6 | inactive |
| CG13050 | DRSC09931 | 2.09e5 | 1.80e5 | 2.23e6 | 2.39e6 | inactive |
| CG8726 | DRSC07250 | 1.06e6 | 9.96e5 | 1.41e6 | 1.18e6 | active |
| CG8726 | DRSC26566 | 3.10e5 | 2.48e5 | 6.16e5 | 4.90e5 | inactive |
| CG8726 | DRSC37054 | – | – | – | – | inactive |
| spz3 (spatzle 3) | DRSC02391 | 1.81e5 | 2.04e5 | 1.38e6 | 1.38e6 | inactive |
| spz3 (spatzle 3) | DRSC03008 | 48285 | 75104 | 5.15e5 | 7.11e5 | inactive |
| CG33331 + CG33332 | DRSC22928 | 6.20e5 | 1.28e6 | 1.69e6 | 2.24e6 | inactive |
| CG33331 + CG33332 | DRSC29492 | 7.41e5 | 9.08e5 | 9.09e5 | 9.09e5 | inactive |
| pain (painless) | DRSC04273 | 1.73e5 | 1.36e5 | 1.27e6 | 9.00e5 | inactive |
| pain (painless) | DRSC28351 | 5.18e5 | 7.44e5 | 8.84e5 | 1.49e6 | inactive |

Continued (8 carried over from the part before).
| Gene | DRSC id | firefly reporter light, replicate 1 | firefly reporter light, replicate 2 | Renilla control light, replicate 1 | Renilla control light, replicate 2 | call |
| --- | --- | --- | --- | --- | --- | --- |
| CG8726 | DRSC26566 | 3.10e5 | 2.48e5 | 6.16e5 | 4.90e5 | inactive |
| CG8726 | DRSC37054 | – | – | – | – | inactive |
| spz3 (spatzle 3) | DRSC02391 | 1.81e5 | 2.04e5 | 1.38e6 | 1.38e6 | inactive |
| spz3 (spatzle 3) | DRSC03008 | 48285 | 75104 | 5.15e5 | 7.11e5 | inactive |
| CG33331 + CG33332 | DRSC22928 | 6.20e5 | 1.28e6 | 1.69e6 | 2.24e6 | inactive |
| CG33331 + CG33332 | DRSC29492 | 7.41e5 | 9.08e5 | 9.09e5 | 9.09e5 | inactive |
| pain (painless) | DRSC04273 | 1.73e5 | 1.36e5 | 1.27e6 | 9.00e5 | inactive |
| pain (painless) | DRSC28351 | 5.18e5 | 7.44e5 | 8.84e5 | 1.49e6 | inactive |
| bdwf (bedwarfed) | DRSC15532 | 56525 | 1.50e5 | 4.42e5 | 9.13e5 | inactive |
| CG4198 | DRSC18354 | 1.21e5 | 62088 | 1.02e6 | 4.77e5 | inactive |
| CG4198 | DRSC26635 | 3.05e5 | 3.40e5 | 7.90e5 | 7.91e5 | inactive |
| Ten-a (Tenascin accessory) | DRSC18924 | 1.82e6 | 1.04e6 | 2.56e6 | 9.72e5 | inactive |
| Ten-a (Tenascin accessory) | DRSC19700 | 4.89e5 | 4.59e5 | 3.69e6 | 4.17e6 | inactive |
| Ten-a (Tenascin accessory) | DRSC19793 | 4.23e5 | 4.28e5 | 3.62e6 | 3.98e6 | inactive |
| Ten-a (Tenascin accessory) | DRSC19864 | 5.36e5 | 6.36e5 | 3.61e6 | 3.84e6 | inactive |
| Ten-a (Tenascin accessory) | DRSC19865 | 5.60e5 | 4.91e5 | 4.11e6 | 3.14e6 | inactive |
| Ten-a (Tenascin accessory) | DRSC20290 | 4.59e5 | 3.92e5 | 2.93e6 | 3.42e6 | inactive |
| Ten-a (Tenascin accessory) | DRSC21461 | 7.79e5 | 6.78e5 | 1.93e6 | 1.53e6 | inactive |
| Ten-a (Tenascin accessory) | DRSC23016 | 6.43e5 | 1.12e6 | 1.28e6 | 1.77e6 | inactive |
| Ten-a (Tenascin accessory) | DRSC29598 | 8.33e5 | 9.21e5 | 1.65e6 | 1.65e6 | inactive |
| CG14017 | DRSC02348 | 58910 | 49547 | 7.85e5 | 6.86e5 | inactive |
| CG3045 | DRSC04331 | 7.98e5 | 8.39e5 | 1.76e6 | 1.82e6 | inactive |
| CSN5 (COP9 signalosome subunit 5) | DRSC16592 | 75525 | 91067 | 8.51e5 | 1.06e6 | inactive |
| CSN5 (COP9 signalosome subunit 5) | DRSC22381 | 9.53e5 | 7.84e5 | 2.62e6 | 1.87e6 | inactive |
| CSN5 (COP9 signalosome subunit 5) | DRSC27904 | 5.24e5 | 4.03e5 | 1.67e6 | 1.31e6 | inactive |
| Prestin | DRSC10507 | 1.74e5 | 1.31e5 | 1.45e6 | 1.20e6 | inactive |
| Rad9 | DRSC11263 | 60748 | 42955 | 6.76e5 | 4.51e5 | inactive |
| Taf7 (TBP-associated factor 7) | DRSC15445 | 1.19e5 | 47948 | 2.23e6 | 8.05e5 | inactive |
| Taf7 (TBP-associated factor 7) | DRSC26720 | 1.69e5 | 2.23e5 | 6.72e5 | 8.81e5 | active |
| CG9727 | DRSC12585 | 39121 | 28903 | 3.10e5 | 3.22e5 | inactive |
| CG9727 | DRSC28868 | 3.50e5 | 3.16e5 | 1.20e6 | 9.52e5 | inactive |
| Klp59C (Kinesin-like protein at 59C) | DRSC04348 | 2.78e5 | 3.58e5 | 2.01e6 | 2.05e6 | inactive |
| Klp59C (Kinesin-like protein at 59C) | DRSC24637 | 3.11e5 | 3.24e5 | 2.88e5 | 3.92e5 | inactive |
| CG4408 | DRSC15574 | 61200 | 47038 | 5.17e5 | 4.97e5 | inactive |
| CG30414 | DRSC04372 | 3.52e5 | 2.89e5 | 2.31e6 | 2.09e6 | inactive |
| CG30414 | DRSC28748 | 5.83e5 | 5.54e5 | 1.16e6 | 1.22e6 | inactive |
| CG34043 | DRSC37773 | 1.22e6 | 1.04e6 | 2.65e6 | 2.79e6 | inactive |
| CG33475 | DRSC22943 | 4.15e5 | 8.90e5 | 2.97e5 | 3.82e5 | inactive |
| CG18568 | DRSC06768 | 8.84e5 | 7.39e5 | 2.40e6 | 2.14e6 | inactive |
| CG18568 | DRSC24546 | 9.45e5 | 9.61e5 | 8.34e5 | 7.66e5 | inactive |
| fne (found in neurons) | DRSC20332 | 2.63e5 | 2.03e5 | 2.45e6 | 2.20e6 | inactive |
| fne (found in neurons) | DRSC25027 | 7.20e5 | 4.94e5 | 4.24e5 | 4.86e5 | inactive |
| fne (found in neurons) | DRSC25129 | 4.35e5 | 4.13e5 | 3.32e5 | 3.03e5 | inactive |
| CG7953 | DRSC01902 | 9.08e5 | 1.01e6 | 1.73e6 | 1.70e6 | inactive |
| eIF2Balpha (eukaryotic translation initiation factor 2B subunit alpha) | DRSC16332 | 1.92e5 | 1.16e5 | 1.13e6 | 6.85e5 | inactive |
| CG44014 + CG44013 | DRSC14995 | 2.54e5 | 2.25e5 | 2.61e6 | 2.46e6 | inactive |
| CG44014 + CG44013 | DRSC28897 | 3.72e5 | 4.21e5 | 9.95e5 | 9.82e5 | inactive |
| mus301 (mutagen-sensitive 301) | DRSC10939 | 3.54e5 | 1.66e5 | 3.80e6 | 1.54e6 | inactive |
| Dsor1 (Downstream of raf1) | DRSC18462 | 1.05e5 | 97052 | 7.82e5 | 7.66e5 | inactive |
| Dsor1 (Downstream of raf1) | DRSC27547 | 1.86e5 | 2.38e5 | 6.23e5 | 8.64e5 | inactive |
| Pvr (PDGF- and VEGF-receptor related) | DRSC03080 | 5.42e5 | 6.24e5 | 1.43e6 | 1.28e6 | inactive |
| Pvr (PDGF- and VEGF-receptor related) | DRSC36840 | 8.89e5 | 7.29e5 | 1.15e6 | 1.08e6 | inactive |
| Pvr (PDGF- and VEGF-receptor related) | DRSC36841 | – | – | – | – | inactive |
| l(3)mbn (lethal (3) malignant blood neoplasm) | DRSC08793 | 1.85e5 | 1.36e5 | 3.24e5 | 1.93e5 | inactive |
| CR1075 (pseudo) | DRSC12144 | 58697 | 68835 | 1.60e6 | 1.27e6 | inactive |
| CG1979 | DRSC12495 | 50488 | 63013 | 3.45e5 | 4.00e5 | inactive |
| CG1979 | DRSC24707 | 8.04e5 | 5.83e5 | 6.62e5 | 6.59e5 | inactive |
